According to US20260070917A1, “CYCLIN DEPENDENT KINASE DEGRADERS AND METHODS OF USE THEREOF” (Differentiated Therapeutics Inc, priority 2023, published 2026):
The match of structure and compound is tentative.

Amino acid sequences for entries named in this document (tags omitted).
UniProt P24864, whole entry: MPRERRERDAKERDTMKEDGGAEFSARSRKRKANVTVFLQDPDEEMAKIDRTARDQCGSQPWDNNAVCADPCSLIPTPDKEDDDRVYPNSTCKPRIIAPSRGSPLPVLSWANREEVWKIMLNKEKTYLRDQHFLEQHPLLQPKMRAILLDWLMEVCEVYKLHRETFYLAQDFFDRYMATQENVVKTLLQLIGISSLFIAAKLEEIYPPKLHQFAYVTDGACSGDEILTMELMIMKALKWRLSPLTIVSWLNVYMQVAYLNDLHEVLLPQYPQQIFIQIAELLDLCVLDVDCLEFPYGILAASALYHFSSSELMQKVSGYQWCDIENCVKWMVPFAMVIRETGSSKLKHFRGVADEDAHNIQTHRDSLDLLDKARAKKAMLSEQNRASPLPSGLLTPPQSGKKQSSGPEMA
UniProt P50750, whole entry: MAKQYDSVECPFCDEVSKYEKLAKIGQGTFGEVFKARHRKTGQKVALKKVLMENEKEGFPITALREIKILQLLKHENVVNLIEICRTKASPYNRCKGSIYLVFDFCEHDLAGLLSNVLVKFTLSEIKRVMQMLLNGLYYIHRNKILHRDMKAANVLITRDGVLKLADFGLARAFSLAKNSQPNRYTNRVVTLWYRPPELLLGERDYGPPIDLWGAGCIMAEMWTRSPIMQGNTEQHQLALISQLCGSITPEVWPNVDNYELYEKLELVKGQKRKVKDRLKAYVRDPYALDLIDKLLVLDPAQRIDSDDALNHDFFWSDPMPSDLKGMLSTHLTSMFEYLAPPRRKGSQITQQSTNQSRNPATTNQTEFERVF

Key:
[1] = target: CCNE1 (Homo sapiens, UniProt P24864); assay: HiBit Assay Protocol for CCNE1 (HIBIT protein quantification, degradation); settings: HEK293-CCNE1-Hibit cells, compound treatment for 6 hours
[2] = target: CDK2 (Homo sapiens, UniProt P24941); assay: HiBit Assay Protocol for CDK2 (HIBIT protein quantification, degradation); settings: HEK293-CDK2-Hibit cells, compound treatment for 6 hours; for DC50: read-out: CDK2 HIBIT Protein Quantification DC50, ABS DC50
[3] = target: CDK9 (Homo sapiens, UniProt P50750); assay: HiBit Assay Protocol for CDK9 (HIBIT protein quantification, degradation); settings: HEK293-CDK9-Hibit cells, compound treatment for 6 hours

Row | SMILES | CCNE1 HIBIT Protein Quantification Maximum [1] | CDK2 HIBIT Protein Quantification Maximum [2] | DC50 [2] | CDK9 HIBIT Protein Quantification Maximum [3]
1 | CC1CCCC1N1C(=O)C2(CC2)c2cnc(NC3CCN(S(=O)(=O)N4CC(N(C)C(=O)CCCCCCCc5cccc6c5n(C)c(=O)n6C5CCC(=O)NC5=O)C4)CC3)nc21 (stereo not drawn) | 18% | 59% | 8 nM | 41%
2 | CC1CCCC1N1C(=O)C2(CC2)c2cnc(NC3CCN(S(=O)(=O)N4CC(N(C)C(=O)CCCCCc5ccc6c(c5)n(C)c(=O)n6C5CCC(=O)NC5=O)C4)CC3)nc21 (stereo not drawn) | 19% | 52% | 3 nM | 41%
3 | CC1CCCC1N1C(=O)C2(CC2)c2cnc(NC3CCN(S(=O)(=O)N4CC5C4CCN5C(=O)CCCCCc4cccc5c4n(C)c(=O)n5C4CCC(=O)NC4=O)CC3)nc21 (stereo not drawn) | 15% | 65% | 11 nM | 33%
